Some of the results follow. These are further read-outs of the screen, such as a control signal, another cell line or another target. No call is given for them. Compounds called inactive in the main read-out are mostly missing here. The note in brackets gives the kind of curve behind each potency; many fits are weak.
Test: qHTS Assay for Lipid Storage Modulators in Drosophila S3 Cells;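 on cell number change: cells counted by Cell Tracker Red CMTPX staining in the red channel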
Conditions: BODIPY lipid droplet fluorescence, 18-24 h; for cell number change: measured here: cell count max response, cells fed with added oleic acid
Summary of the method: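 Drosophila S3 cells got compounds at several concentrations plus oleic acid (400 uM solution). Laser-scanning cytometry with 488 nm excitation read lipid droplets at 500-530 nm and cells at 575-640 nm. Percent activity was relative to 20 uM Triacsin C.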

[1] = measured here: cell number channel AC50, cells fed with added oleic acid
[2] = measured here: lipid fluorescence (Fed channel) AC50, cells fed with added oleic acid

## CCC(CO)N=CC1=C(O)CC(C)(C)CC1=O (stereo not drawn)
  cell number change: -3.35%
[1]
  AC50: 0.184 µM [falling, full curve, poor fit]
[2]
  AC50: 6.51 µM [falling, single point]

## O=C(Nc1ccccc1)/C(=C/c1cccc(Br)c1)NC(=O)c1ccco1
  cell number change: -33.1%
[1]
  AC50: 16.4 µM [falling, single point]
[2]
  AC50: 14.6 µM [falling, partial curve, poor fit]

## CN(C(=O)c1ccco1)c1nnc(C23CC4CC(CC(C4)C2)C3)s1
  cell number change: -19.5%
[2]
  AC50: 13 µM [falling, partial curve]

## O=C(NCc1ccccc1)c1ccc[n+]([O-])c1
  cell number change: 5.96%
[2]
  AC50: 0.103 µM [rising, full curve, poor fit]

## O=C(CSc1ncnc2c1cnn2-c1ccc(Cl)cc1)NCc1ccc2c(c1)OCO2
  cell number change: 100%
[1]
  AC50: 0.231 µM [rising, partial curve, poor fit]

## CCC(C)(C)NC(=O)C(NS(=O)(=O)c1cccs1)c1ccccc1 (stereo not drawn)
[2]
  AC50: 29.1 µM [rising, single point]

## CCN(CC)CC(=O)Nc1ccc2c(c1)N(C(=O)CN(CC)CC)c1ccccc1CC2
  cell number change: -18.9%
[1]
  AC50: 0.259 µM [falling, full curve, poor fit]
[2]
  AC50: 0.651 µM [falling, partial curve, poor fit]

## Cc1cc(Nc2ccc([N+](=O)[O-])cc2)c2ccccc2n1
[1]
  AC50: 1.84 µM [falling, partial curve]
[2]
  AC50: 5.8 µM [falling, single point]

## Cc1ccc(C)c(NC(=O)CSc2nnc(-c3ccncc3)n2N)c1
  cell number change: -0.647%

## COc1ccc(-n2ncc3c(N4CCN(c5cc(C)ccc5C)CC4)ncnc32)cc1
  cell number change: 11.4%
[2]
  AC50: 1.3 µM [rising, partial curve]

## O=C(C1=C[C@@H]2[C@H]3C(=O)N(c4ccccc4)C(=O)[C@H]3[C@@H](C(=O)c3ccc(Cl)cc3)N2C=C1)c1ccccc1
  cell number change: -10%
[1]
  AC50: 0.731 µM [falling, full curve, poor fit]

## CNS(=O)(=O)c1ccc(C)c(S(=O)(=O)NC)c1
  cell number change: -1.77%
[2]
  AC50: 11.6 µM [falling, partial curve]

## CC(=O)N1CCCC(N2CCN(c3cccc(C(F)(F)F)c3)CC2)C1 (stereo not drawn)
  cell number change: 7.66%
[2]
  AC50: 0.326 µM [falling, full curve, poor fit]

## O=C(NCCc1ccccc1)C1CCCN1C(=O)NCc1ccccc1 (stereo not drawn)
  cell number change: -1.82%
[2]
  AC50: 1.84 µM [falling, full curve]

## O=C(CNC(=O)c1ccccc1)NCCc1ccc(O)c(O)c1
  cell number change: -29.2%
[1]
  AC50: 0.0517 µM [falling, full curve, poor fit]
[2]
  AC50: 0.58 µM [rising, single point]

## O=S(=O)(Nc1cccc(-c2ccc3nncn3n2)c1)c1cccs1
[1]
  AC50: 2.31 µM [falling, partial curve, poor fit]
[2]
  AC50: 29.1 µM [falling, single point]

## Cc1nn2c3c(cnc2c1-c1ccc(Cl)cc1)C(=O)CC(c1ccco1)C3 (stereo not drawn)
  cell number change: 5.68%
[2]
  AC50: 23.1 µM [rising, single point]

## COc1ccccc1NS(=O)(=O)c1cccc(C(=O)N/N=C/c2ccc3c(c2)OCCO3)c1
  cell number change: -57.3%
[1]
  AC50: 29.1 µM [falling, single point]
[2]
  AC50: 5.17 µM [rising, partial curve]

## COc1cccc(OC)c1CN1CCCC(C(=O)c2ccccc2SC)C1 (stereo not drawn)
  cell number change: -61.1%
[1]
  AC50: 32.6 µM [falling, single point]
[2]
  AC50: 32.6 µM [falling, partial curve, poor fit]

## CC1(C)CC(NC(=O)c2ccccc2F)CC(C)(C)N1
  cell number change: -19%

## CCCCCCC(C)OC(=O)Nc1cccc2ccccc12 (stereo not drawn)
  cell number change: -29.4%
[2]
  AC50: 25.9 µM [falling, partial curve, poor fit]

## CCC(=O)Nc1ccnc(-c2cccnc2)n1
  cell number change: 1.44%
[2]
  AC50: 20.6 µM [rising, single point]

## COc1ccc(OC)c(/C=C/C(=O)OCC(=O)Nc2nnc(-c3ccccc3)o2)c1
  cell number change: 3.75%
[2]
  AC50: 2.06 µM [rising, partial curve, poor fit]

## CCC(C)(C)C1CCC2(CC1)NC(=O)N(CC(=O)NCCCc1ccccc1)C2=O (stereo not drawn)
  cell number change: -12%

## CCOP(=O)(c1ccc(N(C)C)cc1)C(O)c1cccnc1 (stereo not drawn)
  cell number change: 4.12%
[2]
  AC50: 0.517 µM [falling, partial curve, poor fit]

## CCOc1ccc(C(=O)NCC(=O)Nc2ncccc2C)cc1OCC
  cell number change: 58.4%
[1]
  AC50: 16.4 µM [rising, partial curve, poor fit]

## CCN(CC)C(=O)c1ccc(C(=O)c2c(C)cc(C)cc2C)cc1
[1]
  AC50: 1.84 µM [rising, partial curve, poor fit]

## Clc1ccccc1-c1nn2c(-c3ccccn3)nnc2s1
  cell number change: 19.4%
[1]
  AC50: 2.91 µM [rising, single point]

## CC(O)C(O)C(O)C(O)C1NCCS1 (stereo not drawn)
  cell number change: -11.9%
[2]
  AC50: 20.6 µM [falling, single point]

## N#C/C(=C\c1ccc(N2CCOCC2)o1)c1nc2ccccc2[nH]1
  cell number change: -99.4%
[1]
  AC50: 29.1 µM [falling, single point]
[2]
  AC50: 29.1 µM [falling, single point]

## COc1ccc(CNC(=O)c2cccs2)cc1
  cell number change: 3.51%

## CC(=O)c1ccc(OCCCC(=O)NC2CCCc3ccccc32)cc1 (stereo not drawn)
  cell number change: 21%
[2]
  AC50: 29.1 µM [rising, single point]

## COc1ccc(S(=O)(=O)N2CCN(C(=O)[C@@H]3CCC(=O)N3C3OC(=O)c4ccccc43)CC2)cc1 (stereo partly drawn)
  cell number change: -40.7%
[1]
  AC50: 29.1 µM [falling, single point]
[2]
  AC50: 29.1 µM [falling, single point]

## COc1ccc(NS(=O)(=O)c2ccc(N3CCN(CCO)CC3)c([N+](=O)[O-])c2)cc1
[2]
  AC50: 6.51 µM [falling, partial curve]

## CSCCC(NC(=O)c1ccc(C(C)(C)C)cc1)C(=O)O (stereo not drawn)
  cell number change: -91.2%
[1]
  AC50: 25.9 µM [falling, partial curve]

## CCC12CN(C(=O)c3ccc([N+](=O)[O-])cc3)CC(CC)(CN(C(=O)c3ccc([N+](=O)[O-])cc3)C1)C2=O
  cell number change: -2.19%
[2]
  AC50: 0.164 µM [falling, full curve, poor fit]

## Cc1ccc(-c2nn(CC(=O)NCc3cc(-c4nn(C)c(=O)c5ccccc45)ccc3C)c(=O)c3ccccc23)cc1
  cell number change: 16.6%
[2]
  AC50: 23.1 µM [rising, partial curve, poor fit]

## CC(C)(C)c1ccc(C2(C)NC(=O)N(CC(=O)NC3CCS(=O)(=O)C3)C2=O)cc1 (stereo not drawn)
  cell number change: -9%

## COc1ccc(CN=Cc2[nH]c3ccc(Br)c(Cl)c3c2O)cc1
  cell number change: 73.7%
[1]
  AC50: 10.3 µM [rising, partial curve]

## OC(COCc1ccc2c(c1)OCO2)CN1CCCCC1 (stereo not drawn)
  cell number change: -31.8%
[1]
  AC50: 0.651 µM [falling, partial curve, poor fit]
[2]
  AC50: 0.0326 µM [falling, full curve, poor fit]

## O=C(COC(=O)c1cnccn1)Nc1c(Cl)cc(Cl)cc1Cl
  cell number change: 28.1%
[2]
  AC50: 6.51 µM [rising, single point]

## COC(=O)c1ccc(CSc2n[nH]c(C)n2)o1
  cell number change: -26.4%
[2]
  AC50: 3.66 µM [falling, full curve]

## Cc1c(OCC(=O)NC(Cc2ccc(Cl)cc2)C(=O)O)ccc2c3c(c(=O)oc12)CCC3 (stereo not drawn)
  cell number change: 38.5%
[1]
  AC50: 5.17 µM [rising, partial curve, poor fit]
[2]
  AC50: 5.17 µM [rising, full curve]

From PubChem BioAssay AID2685 (National Center for Advancing Translational Sciences (NCATS), 2010)
